# In PubChem BioAssay AID2517 (National Center for Advancing Translational Sciences (NCATS), 2010):
# By UniProt entry, the sequences of proteins in these tests, tags left out.
# UniProt P27695, whole entry, looked up: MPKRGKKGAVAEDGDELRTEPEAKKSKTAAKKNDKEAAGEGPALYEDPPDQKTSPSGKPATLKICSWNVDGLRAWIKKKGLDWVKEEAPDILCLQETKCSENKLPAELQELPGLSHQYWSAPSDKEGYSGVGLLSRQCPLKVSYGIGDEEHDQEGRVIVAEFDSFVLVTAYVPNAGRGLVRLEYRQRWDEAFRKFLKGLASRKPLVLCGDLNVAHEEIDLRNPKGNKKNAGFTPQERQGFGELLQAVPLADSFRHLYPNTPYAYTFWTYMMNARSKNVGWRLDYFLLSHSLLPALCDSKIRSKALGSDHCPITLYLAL
# “And” between values parts separate entries of the source, which are not always exact repeats. Identical values can stand only once. Among all 350,000 compounds or so, about 1,200 (0.34%) were called active. The inconclusive results got no clear call from the source; some entries with a clear call stand among them for comparison. Calls follow the shape of the dose curve; as a rule, active = well fitted inhibition curve with a large enough effect; inconclusive = small, poorly fitted or top-dose-only effect; inactive = no such curve, though single readings can be large or run the other way. A potency beside an inconclusive call is a rough fit, not a confirmed value.
# Biological target: DNA repair nuclease/redox regulator APEX1 (Homo sapiens) (UniProt P27695)
# Experiment: qHTS Assay for Inhibitors of the Human Apurinic/apyrimidinic Endonuclease 1 (APE1); also: nearly all actives have a fitted effect of over 55% in size;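 as to activity change, negative = inhibition: plate controls were vehicle for no effect and reference inhibitor for full effect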
# Conditions: recombinant APE1, TAMRA/BHQ-2 abasic DNA cleavage fluorescence; activity change, negative = inhibition: at 65.8 µM (top of the series)
# Method in brief: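 Step 1: APE1 (0.75 nM) with compound, 15 min RT. Step 2: add 50 nM fluorophore/quencher THF duplex. Step 3: three fluorescence reads 60 s apart (525/598 nm); read 3 minus read 1 = reaction progress.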
# Potency is read from the fitted curve at half-maximal effect.
SMILES,Potency,"activity change, negative = inhibition"
Cc1ccc(-c2csc(N/N=C/c3ccco3)n2)c(C)c1,"inconclusive: 1.12 µM [inhibitor, full curve]",–
CN(C)c1ccc(C(CNC(=O)c2ccccc2)c2c[nH]c3ccccc23)cc1 (stereo unspecified),"inconclusive: 12.6 µM [inhibitor, partial curve, poor fit]",–
Cc1sc2ncnc(N3CCN(Cc4ccccc4)CC3)c2c1-c1ccccc1,–,inactive: -8.73%
O=C(CNC1CCCCCC1)Nc1ccc(N2CCCC2)cc1,–,inactive: 0.173%
COc1ccc(/C=N/N=C2/CC(C)(C)Cc3n[nH]c(=O)cc32)cc1,"inconclusive: 31.6 µM [inhibitor, single point]",–
COc1cc(OC)cc(C(=O)N2CCN(C(=O)COc3ccc4ccccc4c3)CC2)c1,–,inactive: -3.87%
COc1cc(C(=O)Nc2cccc3cccnc23)cc(OC)c1OC,"inconclusive: 7.94 µM [inhibitor, full curve, poor fit]",–
O=C(COc1ccccc1[N+](=O)[O-])N/N=C/C=C/c1ccco1,–,inactive: -0.154%
Cc1ccc(/C(=N/Nc2nc3ccccc3s2)C2=C(O)c3ccccc3C2=O)cc1,"inconclusive: 44.7 µM [inhibitor, single point]",–
S=c1[nH]nc(-c2ccco2)n1-c1ccccc1Cl,–,inactive: -9.59%
CCOC(=O)c1ccc2c(c1)C1C=CCC1C(C(=O)O)N2 (stereo unspecified),"inconclusive: 25.1 µM [inhibitor, partial curve]",–
COC(=O)CCCC1=CC2=CC(=O)C(C)(OC(=O)c3cccs3)C(=O)C2=CN1C1CCCCC1 (stereo unspecified),inactive,–
C=CCOc1c(OC)cc(/C=N/Nc2cccc(C(=O)O)c2)c(Br)c1Br,"inconclusive: 20 µM [inhibitor, partial curve, poor fit]",–
Cc1oc(C(C)(C)C)cc1C(=O)N1CCN(c2ncccc2C(F)(F)F)CC1,"inconclusive: 44.7 µM [inhibitor, single point]",–
O=c1c(-c2ccc(F)cc2)nc2cnc(N3CCNCC3)nc2n1Cc1cccs1,–,inactive: 12.1%
CCN(CC)c1ccc(/C=C2/C(=O)c3ccc(C(=O)O)cc3C2=O)cc1,"inconclusive: 20 µM [inhibitor, partial curve]",–
CC(=N/O)/C(=N\O)c1ccc(C)o1,"inconclusive: 0.0178 µM [inhibitor, full curve]",–
Cc1ccc2nc(COc3ccc(N(C)S(=O)(=O)c4ccccc4)cc3)cc(=O)n2c1,"inconclusive: 17.8 µM [inhibitor, partial curve]",–
COc1ccccc1N1C(=O)CC(N2CCc3ccccc32)C1=O (stereo unspecified),"inconclusive: 28.2 µM [inhibitor, partial curve]",–
C/C(Cn1nc([N+](=O)[O-])cc1C)=N\NC(=O)COc1ccccc1[N+](=O)[O-],"inconclusive: 0.398 µM [inhibitor, partial curve, poor fit]",–
CCCCCCC(=O)Nc1nc(C)c(-c2csc(Nc3cccc(OC)c3)n2)s1,"inconclusive: 31.6 µM [inhibitor, single point]",–
COc1ccc2nc(SC(C(=O)c3ccccc3)c3ccccc3)nc(C)c2c1 (stereo unspecified),"inconclusive: 0.199 µM [inhibitor, full curve, poor fit]",–

SMILES,Potency,"activity change, negative = inhibition"
CCOC(=O)CNS(=O)(=O)c1cc(-c2nn(C)c(=O)c3ccccc23)ccc1C,active: 35.5 µM,–
Fc1ccc(-c2n[nH]c(=S)c3ccccc23)cc1,"inconclusive: 28.2 µM [inhibitor, single point]",–
O=C(CN1CCN(c2ccc(F)cc2)CC1)NCc1cccs1,"inconclusive: 0.251 µM [inhibitor, full curve]",–
O=C1c2c(O)cc(O)cc2O[C@H](c2ccc(O)c(O)c2)[C@H]1O,"inconclusive: 10 µM [inhibitor, partial curve]",–
O=C1c2c(O)cc(O)cc2OC(c2ccc(O)c(O)c2)C1O (stereo unspecified),"inconclusive: 28.2 µM [inhibitor, partial curve] and inconclusive: 28.2 µM [inhibitor, single point]",–
CCOC(=O)OCC1OC(CCc2ccccc2)CCC1Oc1ccc(OC)cc1 (stereo unspecified),"inconclusive: 3.98 µM [inhibitor, single point]",–
O=C(COc1cccc(Cl)c1)N/N=C\c1cc2ccccc2nc1Cl,"inconclusive: 4.47 µM [inhibitor, single point]",–
Cc1ccc(Cn2c(=S)[nH]c3ccccc3c2=O)cc1,–,inactive: 4.4%
CC1CN(S(=O)(=O)Cc2ccccc2)CC(C)O1 (stereo unspecified),"inconclusive: 0.141 µM [inhibitor, full curve, poor fit]",–
CN(C)CCP(=O)(c1ccccc1)c1ccccc1,–,inactive: -0.4%
Cc1ccc2[nH]c(C(=O)N3CCCC(Nc4ccc(F)cc4)C3)cc2c1 (stereo unspecified),–,inactive: -19.7%
O=C(CCCN1C(=O)/C(=C/c2ccccc2)SC1=S)Nc1cccc(O)c1,"inconclusive: 31.6 µM [inhibitor, single point]",–
CCc1noc(C)c1C(=O)Nc1cc(Cl)ccc1N1CCOCC1,–,inconclusive: 4.16% [inhibitor]
CO[C@]12CC(COC(=O)c3cncc(Br)c3)CN(C)[C@@H]1Cc1cn(C)c3cccc2c13 (stereo partly specified),–,inactive: -4.71%
Cc1ccc(Cc2cncc(O)c2)cc1S(=O)(=O)O,"inconclusive: 50.1 µM [inhibitor, single point]",–
O=c1c(O)c(-c2ccccc2O)oc2cc(O)cc(O)c12,–,inactive: -4.83%
NNc1ccccc1C(F)(F)F,active: 35.5 µM,–
O=C(C[n+]1ccc(C(=O)N/N=C/c2ccc(Br)cc2)cc1)c1ccccc1,"inconclusive: 3.16 µM [inhibitor, single point]",–
Cn1ncc(Cl)c1C(=O)Nc1cc(C(F)(F)F)ccc1F,"inconclusive: 39.8 µM [inhibitor, single point]",–
CCOc1ccc(C2=NNC(c3cccs3)=Nc3ccc(OC)cc32)cc1,"inconclusive: 44.7 µM [inhibitor, single point]",–
O=C(NCc1ccco1)C1CCCN(S(=O)(=O)c2ccc(-n3cnnn3)cc2)C1 (stereo unspecified),"inconclusive: 8.91 µM [inhibitor, single point]",–
O=C(CSc1ncn[nH]1)c1cccc([N+](=O)[O-])c1,–,inactive: -4.64%

SMILES,Potency,"activity change, negative = inhibition"
CCN(CC)S(=O)(=O)c1ccc(-c2csc(C)n2)s1,"inconclusive: 3.55 µM [inhibitor, single point]",–
COc1cc2cccc(OC)c(=O)c2c(OC)c1OC,–,inactive: 13.5%
O=C(O)CN1C(=O)/C(=C\c2cn(CC(=O)N3CCOCC3)c3ccccc23)SC1=S,"inconclusive: 39.8 µM [inhibitor, single point]",–
CCOC(=O)c1[nH]c2ccccc2c1NC(=O)c1ccc(S(=O)(=O)N2CCCCC2)cc1,"inconclusive: 3.55 µM [inhibitor, single point]",–
CCN(CC)c1ccc(/C=C2\C(=O)c3ccc(C(=O)O)cc3C2=O)cc1,"inconclusive: 10 µM [inhibitor, partial curve]",–
C=C(C)C(=O)Nc1cccc(C2=NOC3(C2)C[C@@H](C(N)=O)N(C(=O)C2(C)CC2)C3)c1 (stereo partly specified),"inconclusive: 22.4 µM [inhibitor, partial curve]",–
CC(C)(C)c1cc(C(=O)/C=C/c2ccc(C(=O)O)cc2)cc(C(C)(C)C)c1,"inconclusive: 0.794 µM [inhibitor, partial curve]",–
Cn1cc(CNC(=O)c2cc(-c3ccc(Br)cc3)nc3ccccc23)cn1,"inconclusive: 39.8 µM [inhibitor, single point]",–
CCOC(=O)c1ccccc1NC(=O)CN(c1ccccc1)S(=O)(=O)N(C)C,"inconclusive: 39.8 µM [inhibitor, single point]",–
OC[C@@H]1O[C@H](OC2[C@@H](O)[C@@H](O)C(O)O[C@@H]2CO)[C@H](O)[C@@H](O)[C@@H]1OC1O[C@H](CO)[C@@H](O)[C@H](O)[C@@H]1O (stereo partly specified),–,inactive: -4.24%
COc1ccc(C2C3=C(CCCC3=O)Nc3nc(SCc4ccccc4)nn32)cc1OC (stereo unspecified),"inconclusive: 44.7 µM [inhibitor, single point]",–
Clc1ccc(-n2nnc(-c3nccs3)n2)cc1Cl,–,inactive: 1.93%
Oc1c(CN2CCc3ccccc3C2)cc(Cl)c2cccnc12,–,inactive: 8.83%
O=c1[nH]c(/C=C\c2ccc(O)c(O)c2)nc(O)c1[N+](=O)[O-],"inconclusive: 13.4 µM [inhibitor, partial curve]",–
O=C(NN1C(=O)C2CC=C(Cl)CC2C1=O)c1ccncc1 (stereo unspecified),"inconclusive: 22.4 µM [inhibitor, partial curve]",–
CCOC(=O)c1cn(CC#N)c2cc(F)c(F)cc2c1=O,"inconclusive: 44.7 µM [inhibitor, single point]",–
Cc1ccc(C)c(N(CC(=O)NCCSCc2ccco2)S(C)(=O)=O)c1,"inconclusive: 39.8 µM [inhibitor, single point]",–
Cc1ccc(-c2nn(-c3ccccc3)cc2/C=C2\SC(=S)N(CC(=O)O)C2=O)cc1,"inconclusive: 12.6 µM [inhibitor, partial curve]",–
C#CCOCCOCCOCCNc1nc(N2CCN(C(=O)CCCCCCCCCCNC(=O)Cn3cc(CCCCCN)nn3)CC2)nc(N2CCN(C(=O)CCCCCCCCCCNC(=O)[C@H]([C@@H](C)CC)n3cc(CCCCN=C(N)N)nn3)CC2)n1,"inconclusive: 37.7 µM [inhibitor, single point]",–
O=C(O)c1ccc(Nc2c3ccccc3nc3ccccc23)cc1,–,inactive: -13%
CCn1c(SCC(=O)N2CCCC(C)C2)nnc1-c1ccc(S(=O)(=O)N2CCN(C)CC2)cc1 (stereo unspecified),"inconclusive: 0.0025 µM [inhibitor, full curve, poor fit]",–
O=C(NCC1CCCO1)c1cccs1 (stereo unspecified),"inconclusive: 8.91 µM [inhibitor, single point]",–
